# Experimental data published in article PMC13534789, “Molecular Glue Degraders Enhance CAPRIN1‐Dependent Lysosomal Degradation of APP and Reduce Amyloid β in Alzheimer's Disease” (Advanced Science, 2026).
# Results are given in words; binding and its absence hold for the method and conditions named. Binding seen in cells or lysates may run through a third protein. Some binding calls cover weakened binding; strength is not graded here. For some assays here: Where a sequence is shown, tags or fusion partners need not be part of it.
# Assays:
# [1] = biological target: T1, CAPRIN1, endogenous in HEK293 cells (human (endogenous in HEK293)) (UniProt Q14444); test: co-IP; HEK-APP695WT cells, DMSO or 0043 (10 µM, 24 h); CAPRIN1 immunoprecipitated, APP detected by blot
# T1 sequence: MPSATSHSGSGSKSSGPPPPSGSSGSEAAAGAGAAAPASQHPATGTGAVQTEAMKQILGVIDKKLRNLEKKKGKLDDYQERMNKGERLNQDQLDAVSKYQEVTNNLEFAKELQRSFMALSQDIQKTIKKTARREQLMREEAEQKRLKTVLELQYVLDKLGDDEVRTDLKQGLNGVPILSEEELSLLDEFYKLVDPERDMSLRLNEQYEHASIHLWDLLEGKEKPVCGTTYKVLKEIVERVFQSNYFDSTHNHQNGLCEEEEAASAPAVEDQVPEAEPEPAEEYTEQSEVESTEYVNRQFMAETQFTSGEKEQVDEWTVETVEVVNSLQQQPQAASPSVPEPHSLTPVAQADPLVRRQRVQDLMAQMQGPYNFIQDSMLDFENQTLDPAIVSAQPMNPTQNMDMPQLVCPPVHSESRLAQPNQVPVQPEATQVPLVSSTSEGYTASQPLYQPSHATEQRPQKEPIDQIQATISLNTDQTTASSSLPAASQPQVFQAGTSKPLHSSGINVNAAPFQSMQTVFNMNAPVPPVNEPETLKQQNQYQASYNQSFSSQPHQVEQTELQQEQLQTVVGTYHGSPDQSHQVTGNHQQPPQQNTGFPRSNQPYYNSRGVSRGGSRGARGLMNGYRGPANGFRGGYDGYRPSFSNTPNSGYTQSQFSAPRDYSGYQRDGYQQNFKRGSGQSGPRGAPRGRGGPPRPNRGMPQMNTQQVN
# [2] = biological target: T2, Flag-tagged CAPRIN1 (cytoplasmic activation/proliferation-associated protein 1) (UniProt Q14444); test: co-IP; HEK cells co-transfected with HiBiT-APP695 and Flag-tagged CAPRIN1; Flag immunoprecipitation, immunoblot with HiBiT antibodies
# T2 sequence: T1 sequence
Substance,binding [1],binding [2]
"APP695 wild type, untagged, in HEK-APP695WT cells (from UniProt P05067-4 18-695)",binds,–
"APP695-HiBiT (wild-type amyloid precursor protein, isoform APP695, with HiBiT tag) (from UniProt P05067-4 18-695)",–,binds
